PubChem BioAssay AID686938 | Drosophila RNAi Screening Center, 2013

- Aim: 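Knock-downs reducing store-operated calcium influx in Drosophila cells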 (primary screen)
- System: Drosophila S2R+ cells
- Knock-down reagent: long dsRNA against Drosophila genes, about 0.25 µg dsRNA per well, roughly 10,000 cells
- Duration: 5 days of knock-down before the calcium assay
- Conditions: thapsigargin (SERCA pump blocker) to empty calcium stores; entry signal taken 4 min after adding it
- Detection: 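Per-well fluo-4 fluorescence in two replicates, unnormalised, measured in resting cells and 4 min after store depletion by the SERCA blocker thapsigargin; ratio of the two present in few wells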
- Direction: calcium entry signal: higher = stronger calcium signal after store depletion; resting calcium signal: higher = higher resting calcium signal
- Rule for the call: 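Hit if the duplicate-averaged plate z-score for entry over resting signal is under −3; wells with weak total dye signal (Fmax z < −2) or more than 5 off-targets removed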
- Calls: active = strongly reduced calcium entry; inactive = no strong reduction
In all, the deposit lists about 23,000 reagents; shown is an unselected part of those that have a named target and a result. In the full data, 75 (0.33%) got an active call. 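Raw plate signals without normalisation; calls rest on plate z-scores that were not deposited; ratio present for only 364 wells.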 Entries without a mark were called inactive. The numbers tell different reagents against one gene apart. Names joined by + are all predicted targets of the reagent. Reagent sequences are not shown. Not given: the dose of the treatment.

gene	dsRNA no.	calcium entry signal, replicate 1 (fluorescence units)	calcium entry signal, replicate 2 (fluorescence units)	resting calcium signal, replicate 1 (fluorescence units)	resting calcium signal, replicate 2 (fluorescence units)
CG32301	1	3.25e7	4.14e7	1.71e7	1.88e7
swaPsi	1	3.64e7	3.45e7	2.24e7	1.70e7
Ir51a	1	3.72e7	4.58e7	1.78e7	1.93e7
CG17111	1	5.15e7	5.45e7	2.64e7	2.40e7
CG3062	1	2.94e7	3.97e7	1.54e7	1.68e7
Opa1	1	3.15e7	4.59e7	1.37e7	2.10e7
Eig71Ei	1	5.01e7	6.32e7	2.15e7	2.69e7
CG43138	1	2.74e7	3.61e7	1.19e7	1.45e7
Vm34Ca	1	3.30e7	2.25e7	1.50e7	1.13e7
CG5934	1	3.99e7	6.22e7	2.01e7	2.34e7
CG30082	1	3.42e7	4.28e7	1.66e7	1.83e7
Su(var)3-3	1	2.83e7	4.07e7	1.45e7	2.89e7
Cadps	1	5.14e7	4.56e7	2.38e7	1.95e7
Cadps	2	3.88e7	6.62e7	1.84e7	3.07e7
Osi24	1	4.32e7	4.01e7	2.06e7	1.90e7
SPoCk	1	3.07e7	3.97e7	1.42e7	1.58e7
SPoCk	2	2.17e7	3.26e7	9.75e6	1.39e7
SPoCk	3	3.10e7	3.64e7	1.59e7	1.75e7
SPoCk	4	2.93e7	4.39e7	1.40e7	1.68e7
Idh3a	1	3.32e7	4.56e7	1.83e7	2.01e7
CG3330	1	5.02e7	6.03e7	2.20e7	2.60e7
Nrt	1	2.50e7	3.38e7	1.22e7	2.23e7
Or85d	1	4.33e7	3.27e7	2.30e7	1.59e7
CG11458	1	3.49e7	4.93e7	1.69e7	2.16e7
ppk7	1	3.93e7	3.56e7	2.23e7	1.60e7
Gbp1	1	4.39e7	4.21e7	1.87e7	1.86e7
CG43996 + CG43997	1	4.20e7	3.56e7	2.08e7	1.61e7
CG43996 + CG43997	2	3.46e7	2.85e7	1.85e7	1.49e7
Lsm10	1	4.12e7	2.16e7	1.98e7	1.37e7
CG13855	1	4.26e7	4.61e7	5.15e7	1.98e7
SelT	1	3.85e7		2.03e7	
CG43980	1	3.02e7	3.31e7	1.76e7	1.56e7
CG43980	2	2.66e7	4.45e7	1.36e7	2.10e7
CG43980	3	4.10e7	5.09e7	2.08e7	2.52e7
CG31955	1	4.01e7	3.59e7	1.88e7	1.62e7

Entries above whose target name begins with S or s (7):
gene	dsRNA no.	calcium entry signal, replicate 1 (fluorescence units)	calcium entry signal, replicate 2 (fluorescence units)	resting calcium signal, replicate 1 (fluorescence units)	resting calcium signal, replicate 2 (fluorescence units)
swaPsi	1	3.64e7	3.45e7	2.24e7	1.70e7
Su(var)3-3	1	2.83e7	4.07e7	1.45e7	2.89e7
SPoCk	1	3.07e7	3.97e7	1.42e7	1.58e7
SPoCk	2	2.17e7	3.26e7	9.75e6	1.39e7
SPoCk	3	3.10e7	3.64e7	1.59e7	1.75e7
SPoCk	4	2.93e7	4.39e7	1.40e7	1.68e7
SelT	1	3.85e7		2.03e7	

Further reagents:
gene	dsRNA no.	calcium entry signal, replicate 1 (fluorescence units)	calcium entry signal, replicate 2 (fluorescence units)	resting calcium signal, replicate 1 (fluorescence units)	resting calcium signal, replicate 2 (fluorescence units)
CG13653	1	4.41e7	7.47e7	2.28e7	3.03e7
slo	1	3.79e7	3.10e7	1.63e7	1.73e7
slo	2	4.06e7	3.96e7	1.86e7	1.72e7
slo	3	3.39e7	5.80e7	1.62e7	2.96e7
slo	4	3.78e7	3.61e7	1.93e7	1.65e7
meigo	1	2.49e7	2.82e7	6.90e7	1.53e7
Nlg4	1	4.50e7	4.06e7	4.94e7	1.75e7
Nlg4	2	3.53e7	3.67e7	1.96e7	1.59e7
Nlg4	3	4.12e7	3.65e7	5.64e7	1.69e7
Nlg4	4	3.28e7	3.12e7	3.34e7	1.62e7
Nlg4	5	2.98e7	3.94e7	1.55e7	2.17e7
Hsp60A	1	1.89e7	2.27e7	9.69e6	1.10e7
Arpc4	1	3.29e7	2.91e7	1.59e7	1.44e7
CG9616	1	2.16e7	2.72e7	1.16e7	4.35e7
anne	1	1.18e7	2.09e7	6.99e6	9.45e6
CG8089	1	3.60e7	3.98e7	1.82e7	1.93e7
Coq5	1	4.07e7	4.05e7	2.03e7	1.97e7
Coq5	2	4.01e7	4.26e7	1.83e7	1.84e7
Flad1	1	4.20e7	4.06e7	1.97e7	1.82e7
Cog6	1	3.79e7	2.84e7	1.53e7	1.21e7
CG43066	1	4.74e7	4.44e7	2.01e7	2.27e7
CG6000	1	6.05e7	5.51e7	2.67e7	2.37e7
primo-2 + primo-1	1	2.94e7	4.11e7	1.50e7	5.99e7
CG43084	1	4.21e7	4.33e7	1.89e7	1.81e7
18w	1	3.13e7	2.68e7	1.44e7	1.42e7
CG31882	1	1.68e7	3.64e7	1.37e7	1.61e7
spz3	1	2.60e7	3.16e7	1.25e7	1.41e7
spz3	2	2.70e7	2.94e7	1.24e7	1.23e7
Prosalpha3T	1	4.60e7	5.25e7	2.27e7	2.22e7
kl-5 (retired record)	1	4.37e7	4.96e7	2.34e7	2.18e7
kl-5 (retired record)	2	2.88e7	3.47e7	1.33e7	1.55e7
kl-5 (retired record)	3	3.40e7	3.37e7	1.54e7	1.71e7
kl-5 (retired record)	4	6.27e7	3.45e7	2.51e7	1.39e7
Mrm2	1	3.99e7	4.93e7	6.22e7	2.11e7
CG33791 + CG12105 + CG18170	1	3.24e7	3.01e7	1.47e7	1.53e7
CaMKII	1	3.74e7	4.50e7	1.61e7	1.92e7
CG6059	1	4.31e7	4.76e7	1.99e7	2.18e7
ATPsynG	1	4.10e7	4.49e7	2.13e7	1.90e7
CG6836	1	3.63e7	4.19e7	1.49e7	2.98e7
Hsdl2	1	3.27e7	4.67e7	1.70e7	2.08e7
